# Source: the supplement of paper PMC7666118
# Chains of the proteins cited; added tags and fusions are not shown. Lines headed by an entry give the natural chain unless they say otherwise; changes in a name come on top.
# UniProt Q10472: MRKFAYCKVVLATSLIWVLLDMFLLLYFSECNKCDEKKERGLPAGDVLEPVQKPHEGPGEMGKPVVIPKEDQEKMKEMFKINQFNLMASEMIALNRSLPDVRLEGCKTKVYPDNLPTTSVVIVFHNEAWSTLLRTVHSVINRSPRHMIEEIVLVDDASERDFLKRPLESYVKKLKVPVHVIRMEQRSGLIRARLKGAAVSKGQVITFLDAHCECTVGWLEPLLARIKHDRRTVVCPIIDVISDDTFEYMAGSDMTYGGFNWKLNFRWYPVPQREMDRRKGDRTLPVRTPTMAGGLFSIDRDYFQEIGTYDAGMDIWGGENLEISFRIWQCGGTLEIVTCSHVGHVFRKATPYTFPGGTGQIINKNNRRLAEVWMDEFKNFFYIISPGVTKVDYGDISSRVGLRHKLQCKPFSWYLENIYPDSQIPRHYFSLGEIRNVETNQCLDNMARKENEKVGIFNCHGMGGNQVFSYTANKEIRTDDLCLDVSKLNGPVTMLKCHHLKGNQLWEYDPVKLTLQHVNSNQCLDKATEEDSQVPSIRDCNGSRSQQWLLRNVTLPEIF
# UniProt P21333, whole entry: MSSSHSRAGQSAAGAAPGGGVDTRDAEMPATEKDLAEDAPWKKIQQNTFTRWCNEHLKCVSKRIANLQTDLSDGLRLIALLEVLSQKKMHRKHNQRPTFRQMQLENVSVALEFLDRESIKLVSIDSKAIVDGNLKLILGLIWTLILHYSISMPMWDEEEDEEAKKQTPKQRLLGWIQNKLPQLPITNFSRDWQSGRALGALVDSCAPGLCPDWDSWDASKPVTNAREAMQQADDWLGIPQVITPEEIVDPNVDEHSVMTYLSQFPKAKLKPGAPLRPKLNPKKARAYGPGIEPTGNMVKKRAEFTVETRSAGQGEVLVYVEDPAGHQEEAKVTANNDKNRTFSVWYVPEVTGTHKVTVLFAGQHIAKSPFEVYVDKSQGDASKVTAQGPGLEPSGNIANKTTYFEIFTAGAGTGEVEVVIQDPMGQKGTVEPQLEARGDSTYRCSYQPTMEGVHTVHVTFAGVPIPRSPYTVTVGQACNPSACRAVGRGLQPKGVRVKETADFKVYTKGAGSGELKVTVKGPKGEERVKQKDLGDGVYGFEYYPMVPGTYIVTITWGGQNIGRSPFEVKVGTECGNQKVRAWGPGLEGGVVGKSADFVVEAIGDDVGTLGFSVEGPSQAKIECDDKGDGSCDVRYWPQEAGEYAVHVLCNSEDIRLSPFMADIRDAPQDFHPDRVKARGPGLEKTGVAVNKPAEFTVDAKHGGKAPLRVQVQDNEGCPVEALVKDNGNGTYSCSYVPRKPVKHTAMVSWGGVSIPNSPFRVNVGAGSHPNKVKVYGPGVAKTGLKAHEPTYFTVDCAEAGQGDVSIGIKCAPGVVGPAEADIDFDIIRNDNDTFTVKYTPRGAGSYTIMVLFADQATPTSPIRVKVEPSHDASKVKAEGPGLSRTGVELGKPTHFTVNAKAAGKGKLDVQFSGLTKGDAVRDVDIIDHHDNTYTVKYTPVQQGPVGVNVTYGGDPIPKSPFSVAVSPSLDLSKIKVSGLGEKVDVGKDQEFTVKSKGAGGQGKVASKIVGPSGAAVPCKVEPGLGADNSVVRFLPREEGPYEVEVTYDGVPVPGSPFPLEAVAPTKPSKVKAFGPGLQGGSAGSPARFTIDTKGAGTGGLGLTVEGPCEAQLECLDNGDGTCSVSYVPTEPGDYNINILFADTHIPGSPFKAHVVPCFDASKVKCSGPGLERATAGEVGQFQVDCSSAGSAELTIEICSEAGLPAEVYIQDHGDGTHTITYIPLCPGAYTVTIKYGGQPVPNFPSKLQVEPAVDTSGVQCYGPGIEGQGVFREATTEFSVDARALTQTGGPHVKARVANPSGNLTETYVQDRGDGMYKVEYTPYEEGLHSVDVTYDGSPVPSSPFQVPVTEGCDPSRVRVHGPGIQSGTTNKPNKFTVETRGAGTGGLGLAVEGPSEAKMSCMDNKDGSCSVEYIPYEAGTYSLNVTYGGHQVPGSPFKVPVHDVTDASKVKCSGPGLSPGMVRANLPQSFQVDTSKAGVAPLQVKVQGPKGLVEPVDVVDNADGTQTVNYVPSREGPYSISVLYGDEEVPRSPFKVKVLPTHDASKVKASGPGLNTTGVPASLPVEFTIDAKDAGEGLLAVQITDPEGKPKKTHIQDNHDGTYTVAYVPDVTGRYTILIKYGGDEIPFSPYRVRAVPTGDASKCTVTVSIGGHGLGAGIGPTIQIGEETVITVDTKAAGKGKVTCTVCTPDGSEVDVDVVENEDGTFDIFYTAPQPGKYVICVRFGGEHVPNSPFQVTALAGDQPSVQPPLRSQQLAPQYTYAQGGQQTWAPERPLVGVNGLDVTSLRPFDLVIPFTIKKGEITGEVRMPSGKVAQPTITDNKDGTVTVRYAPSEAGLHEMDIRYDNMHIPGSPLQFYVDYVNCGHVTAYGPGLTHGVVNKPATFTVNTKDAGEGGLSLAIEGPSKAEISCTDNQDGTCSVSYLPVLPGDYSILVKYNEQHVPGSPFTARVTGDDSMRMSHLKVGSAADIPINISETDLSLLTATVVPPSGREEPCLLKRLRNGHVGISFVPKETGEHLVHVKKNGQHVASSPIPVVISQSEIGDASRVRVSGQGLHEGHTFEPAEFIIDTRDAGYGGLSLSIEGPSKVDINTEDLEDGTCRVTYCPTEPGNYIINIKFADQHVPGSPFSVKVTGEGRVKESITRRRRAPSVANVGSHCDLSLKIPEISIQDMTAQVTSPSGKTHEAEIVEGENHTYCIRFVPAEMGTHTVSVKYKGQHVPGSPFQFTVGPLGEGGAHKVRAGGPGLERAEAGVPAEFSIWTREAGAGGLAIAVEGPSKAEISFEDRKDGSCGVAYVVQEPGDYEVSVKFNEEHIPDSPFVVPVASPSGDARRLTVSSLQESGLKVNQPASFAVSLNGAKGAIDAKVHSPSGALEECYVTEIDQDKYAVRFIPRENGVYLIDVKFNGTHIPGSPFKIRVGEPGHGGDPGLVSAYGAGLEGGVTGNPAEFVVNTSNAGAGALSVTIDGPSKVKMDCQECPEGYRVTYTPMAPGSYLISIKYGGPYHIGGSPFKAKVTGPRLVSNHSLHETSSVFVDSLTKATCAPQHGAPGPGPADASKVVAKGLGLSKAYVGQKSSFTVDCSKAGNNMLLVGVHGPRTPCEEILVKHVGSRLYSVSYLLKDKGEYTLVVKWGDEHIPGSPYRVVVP
# UniProt Q05932: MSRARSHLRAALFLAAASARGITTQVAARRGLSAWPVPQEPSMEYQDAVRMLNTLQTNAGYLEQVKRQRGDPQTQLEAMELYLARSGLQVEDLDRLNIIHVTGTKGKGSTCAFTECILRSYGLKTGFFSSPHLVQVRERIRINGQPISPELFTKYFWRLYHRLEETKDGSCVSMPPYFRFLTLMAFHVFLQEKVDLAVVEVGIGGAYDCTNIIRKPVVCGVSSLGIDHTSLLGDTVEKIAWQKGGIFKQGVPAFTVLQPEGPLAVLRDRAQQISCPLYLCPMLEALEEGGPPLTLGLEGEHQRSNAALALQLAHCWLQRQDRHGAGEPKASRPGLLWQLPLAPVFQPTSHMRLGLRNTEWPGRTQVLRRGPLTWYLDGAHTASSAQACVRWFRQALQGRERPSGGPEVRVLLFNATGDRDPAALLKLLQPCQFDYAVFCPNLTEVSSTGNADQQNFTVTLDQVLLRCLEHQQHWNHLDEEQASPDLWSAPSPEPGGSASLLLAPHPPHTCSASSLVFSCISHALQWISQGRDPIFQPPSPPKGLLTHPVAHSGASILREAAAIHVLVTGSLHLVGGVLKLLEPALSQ
# UniProt P62873, whole entry: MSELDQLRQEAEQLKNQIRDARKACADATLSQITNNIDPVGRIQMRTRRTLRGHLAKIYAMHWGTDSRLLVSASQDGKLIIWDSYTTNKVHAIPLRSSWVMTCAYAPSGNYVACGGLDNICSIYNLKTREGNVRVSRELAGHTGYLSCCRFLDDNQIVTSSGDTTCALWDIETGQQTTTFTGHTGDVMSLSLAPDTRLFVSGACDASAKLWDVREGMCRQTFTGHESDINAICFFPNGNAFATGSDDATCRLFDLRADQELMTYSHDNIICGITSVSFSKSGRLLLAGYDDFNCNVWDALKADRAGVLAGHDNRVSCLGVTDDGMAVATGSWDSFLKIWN
# UniProt P10109: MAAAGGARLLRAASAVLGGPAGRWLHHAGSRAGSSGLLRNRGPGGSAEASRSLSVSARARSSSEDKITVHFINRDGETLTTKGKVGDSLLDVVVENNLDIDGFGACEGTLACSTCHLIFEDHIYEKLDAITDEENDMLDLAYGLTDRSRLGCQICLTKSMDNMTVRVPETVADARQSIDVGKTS
# UniProt P34059: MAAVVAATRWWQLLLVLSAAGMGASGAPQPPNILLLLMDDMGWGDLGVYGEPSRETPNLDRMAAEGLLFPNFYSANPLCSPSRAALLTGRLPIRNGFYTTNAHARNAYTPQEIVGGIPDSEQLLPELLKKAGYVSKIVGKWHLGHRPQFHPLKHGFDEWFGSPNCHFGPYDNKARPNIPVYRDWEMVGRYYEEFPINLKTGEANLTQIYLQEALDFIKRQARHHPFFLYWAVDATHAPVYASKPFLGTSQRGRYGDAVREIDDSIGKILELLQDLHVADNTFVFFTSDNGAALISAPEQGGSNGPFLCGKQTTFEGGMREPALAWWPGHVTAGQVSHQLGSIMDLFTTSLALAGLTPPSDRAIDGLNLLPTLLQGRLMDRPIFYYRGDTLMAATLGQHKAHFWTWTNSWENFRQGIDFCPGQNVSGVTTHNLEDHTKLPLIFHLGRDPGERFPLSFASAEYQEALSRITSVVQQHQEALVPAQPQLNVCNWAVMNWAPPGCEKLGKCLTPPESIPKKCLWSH
# UniProt Q96ME1: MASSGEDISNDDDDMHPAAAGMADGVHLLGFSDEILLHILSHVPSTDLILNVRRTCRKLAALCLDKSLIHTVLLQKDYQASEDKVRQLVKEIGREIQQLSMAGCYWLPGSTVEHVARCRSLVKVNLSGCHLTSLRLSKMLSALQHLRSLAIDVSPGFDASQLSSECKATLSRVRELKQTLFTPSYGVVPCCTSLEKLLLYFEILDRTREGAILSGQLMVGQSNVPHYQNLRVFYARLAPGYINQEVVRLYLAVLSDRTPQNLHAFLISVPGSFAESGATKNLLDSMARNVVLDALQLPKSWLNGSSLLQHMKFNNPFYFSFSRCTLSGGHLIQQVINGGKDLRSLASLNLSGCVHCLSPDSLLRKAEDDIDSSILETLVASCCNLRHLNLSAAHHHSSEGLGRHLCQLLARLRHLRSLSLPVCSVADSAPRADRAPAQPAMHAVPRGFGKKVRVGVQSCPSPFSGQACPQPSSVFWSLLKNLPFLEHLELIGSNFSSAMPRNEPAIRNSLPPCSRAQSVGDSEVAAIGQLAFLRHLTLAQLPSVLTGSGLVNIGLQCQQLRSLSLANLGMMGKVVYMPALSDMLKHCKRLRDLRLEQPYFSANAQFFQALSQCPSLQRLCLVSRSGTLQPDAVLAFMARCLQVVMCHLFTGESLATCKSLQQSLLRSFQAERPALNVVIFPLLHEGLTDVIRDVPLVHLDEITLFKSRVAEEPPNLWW
# UniProt Q96AE4: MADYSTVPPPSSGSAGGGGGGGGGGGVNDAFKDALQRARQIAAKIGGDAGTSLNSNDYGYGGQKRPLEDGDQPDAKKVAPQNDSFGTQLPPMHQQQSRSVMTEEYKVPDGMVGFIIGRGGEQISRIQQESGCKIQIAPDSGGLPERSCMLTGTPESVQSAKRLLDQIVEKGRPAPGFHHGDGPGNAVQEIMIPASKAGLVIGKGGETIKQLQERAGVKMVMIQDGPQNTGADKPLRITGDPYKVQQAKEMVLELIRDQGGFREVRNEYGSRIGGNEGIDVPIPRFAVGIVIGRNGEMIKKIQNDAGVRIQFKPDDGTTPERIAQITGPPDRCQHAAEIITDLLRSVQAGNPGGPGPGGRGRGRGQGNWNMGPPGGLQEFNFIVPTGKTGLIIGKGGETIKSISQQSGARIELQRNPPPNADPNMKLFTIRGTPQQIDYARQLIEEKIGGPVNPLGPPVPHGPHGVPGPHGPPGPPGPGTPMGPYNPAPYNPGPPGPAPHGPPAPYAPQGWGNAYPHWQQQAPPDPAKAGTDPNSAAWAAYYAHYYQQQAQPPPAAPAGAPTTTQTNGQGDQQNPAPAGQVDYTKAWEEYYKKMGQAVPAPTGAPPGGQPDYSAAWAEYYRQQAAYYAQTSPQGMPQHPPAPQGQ
# UniProt Q17RN3: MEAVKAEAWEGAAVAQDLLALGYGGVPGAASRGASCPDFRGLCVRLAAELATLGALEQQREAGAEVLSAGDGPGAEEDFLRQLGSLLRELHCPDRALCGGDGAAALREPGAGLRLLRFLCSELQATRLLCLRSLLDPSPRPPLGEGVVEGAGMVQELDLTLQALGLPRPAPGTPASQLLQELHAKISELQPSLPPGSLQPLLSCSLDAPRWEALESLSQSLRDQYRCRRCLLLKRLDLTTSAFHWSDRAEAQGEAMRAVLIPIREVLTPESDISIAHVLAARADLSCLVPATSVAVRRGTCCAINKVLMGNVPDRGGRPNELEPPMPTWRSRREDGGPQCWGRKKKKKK
# The other results are listed elsewhere or left out.
# Compound: COc1ccc(Cn2ccc3cc(C)c(C(=O)NO)cc32)cc1
# Test: dose-dependent thermal stabilisation call (2D-TPP, DLPTP, 10% FDR) (binary (1 = stabilised)); higher = stabilised by the compound
# Conditions: system: HL-60 intact cells; concentration range 0.04-10 µM
# Procedure: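 2D thermal proteome profiling in intact HL-60 cells treated with BRD-3811 (0, 0.04, 0.29, 2, 10 uM) for 90 min at 37 C, then heated 3 min at one of 12 temperatures (42-63.9 C). Soluble protein was quantified by TMT10 MS. The value is the DLPTP call of the paper: dose-dependent thermal stabilisation over all temperatures at 10% FDR (F-test of a dose-response against a flat model); one experiment, one call per tested protein.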
row,Target,dose-dependent thermal stabilisation call
1,GALNT1 (UniProt Q10472),inactive: 0
2,FCER1G (UniProt P30273),inactive: 0
3,FLNA (UniProt P21333),inactive: 0
4,GLRX (UniProt P35754),inactive: 0
5,GABARAPL2 (UniProt P60520),inactive: 0
6,GGT5 (UniProt P36269),inactive: 0
7,GGPS1 (UniProt O95749),inactive: 0
8,GATM (UniProt P50440),inactive: 0
9,FPGS (UniProt Q05932),inactive: 0
10,FXN (UniProt Q16595),inactive: 0
11,FLVCR1 (UniProt Q9Y5Y0),inactive: 0
12,GNAI2 (UniProt P04899),inactive: 0
13,GLO1 (UniProt Q04760),inactive: 0
14,GAR1 (UniProt Q9NY12),inactive: 0
15,FASN (UniProt P49327),inactive: 0
16,FTO (UniProt Q9C0B1),inactive: 0
17,GLUL (UniProt P15104),inactive: 0
18,GMFG (UniProt O60234),inactive: 0

row,Target,dose-dependent thermal stabilisation call
1,FBXO30 (UniProt Q8TB52),inactive: 0
2,GNB1 (UniProt P62873),inactive: 0
3,GLTSCR2 (UniProt Q9NZM5),inactive: 0
4,FKBP15 (UniProt Q5T1M5),inactive: 0
5,FASTKD2 (UniProt Q9NYY8),inactive: 0
6,GMPPA (UniProt Q96IJ6),inactive: 0
7,FTSJD2 (UniProt Q8N1G2),inactive: 0
8,FDX1 (UniProt P10109),inactive: 0
9,GALNS (UniProt P34059),inactive: 0
10,GDAP2 (UniProt Q9NXN4),inactive: 0
11,FBXL18 (UniProt Q96ME1),inactive: 0
12,GBA2 (UniProt Q9HCG7),inactive: 0
13,FUBP1 (UniProt Q96AE4),inactive: 0
14,GNB2L1 (UniProt P63244),inactive: 0
15,FAM98C (UniProt Q17RN3),inactive: 0
16,FNTA (UniProt P49354),inactive: 0
17,GMEB1 (UniProt Q9Y692),inactive: 0
18,FKBP8 (UniProt Q14318),inactive: 0

# Retrieved one by one from the list above:
row,Target,dose-dependent thermal stabilisation call
17,GMEB1 (UniProt Q9Y692),inactive: 0
15,FAM98C (UniProt Q17RN3),inactive: 0
